Measurements reported in US11357742B2, “Methods for treating cancer” (X4 Pharmaceuticals, Inc., priority 2015, dated 2022).

System: 786-0 and A498 RCC xenografts
Assay: Murine models with human RCC cell line xenografts (tumor size, IHC, IF, flow cytometry)
Type: in vivo, mice
Conditions: 786-0 and A498 xenografts
Procedure: With each of the human cell lines, 1×10^7 tumor cells were implanted subcutaneously in the flanks of 36 nude/beige mice and tumors allowed to grow to roughly 7 mm in diameter. […] Therefore, on day 7, the mice were sacrificed and the tumors were measured and immediately excised and divided into three parts. One part of each tumor was paraffin-embedded for dual color immunofluorescence. Another part was mechanically disaggregated and treated with collagenase/DNAse to generate a single cell suspension for flow cytometry. The third part was frozen for future pharmacokinetic analysis. Microscope slides were made from the paraffin-embedded tumor tissue, which were stained with antibodies against CD11b, Gr-1, and FAP. The number of infiltrating CD11b+/Gr-1+ MDSC and FAP+ fibroblasts present in the tumor tissue was then determined by immunofluorescence (IF) as previously described (1).
The disaggregated tumor specimens were analyzed for CD11b+/Gr-1+ MDSC and FAP+ fibroblasts by flow cytometry. The fraction of both populations expressing CXCR4 were also determined. […] One part was disaggregated into single cell suspensions and analyzed by flow cytometry as above for MDSC. […] Finally, a bone marrow (BM) sample was generated by extruding marrow from an excised femur with a syringe filled with saline and analyzed by flow cytometry for MDSC.

CNC(=O)c1ccccc1Sc1ccc2c(/C=C/c3ccccn3)n[nH]c2c1 [axitinib, N-methyl-2-[3-((E)-2-pyridin-2-yl-vinyl)-1H-indazol-6-ylsulfanyl]-benzamide]
Ki-67 positive tumor cells (IHC staining): increase
